Drawing on the supplement of paper PMC9549374, this text covers maximal number for 15 molecules.

This is one part of the list. No stated cut-off is given here; in the data, active = 2-fold of DMSO or more and inactive = the rest. Single values of this set are uncertain. Some low values are a fixed figure set by the source, not a measured ratio.

This experiment relates to CM7/1-hgem mouse ES cell-derived cardiomyocytes. In words: maximal number of mAG-hGem(1/110)-positive cardiomyocytes over 96 h, fold-change vs DMSO; higher = more cardiomyocyte cell cycle activity. Conditions: 1 µM; 96 (max over 12 h time points) h.
On to `CN(C)c1cc(NC(=O)CNC(C)(C)C)c(O)c2c1C[C@H]1C[C@H]3[C@H](N(C)C)C(O)=C(C(N)=O)C(=O)[C@@]3(O)C(O)=C1C2=O`, for which the maximal number was inactive: 1. On to `CC[C@H](CC[C@@H](C)[C@H]1CC[C@H]2[C@@H]3CC=C4C[C@@H](OC(C)=O)CC[C@]4(C)[C@H]3CC[C@]12C)C(C)C`, for which the maximal number was inactive: 1. Turning to `COc1cc(/C=C/C(=O)N2CCCCCCC2)cc(OC)c1OC`, the maximal number is inactive: 1. As for `CCC(=O)Oc1ccc2c(c1)CC[C@@H]1[C@@H]2CC[C@]2(C)[C@@H](OC(=O)CC)CC[C@@H]12`, the figure is inactive: 1; as for `N=c1ccn2c(n1)O[C@H]1[C@H](O)[C@@H](CO)O[C@H]12`, inactive: 1.

As to `COc1cc2ccc(=O)oc2c(OC)c1OC`, the maximal number is inactive: 0.5. Take `Cc1cc(-c2ccccc2)nnc1NCCN1CCOCC1`: the maximal number was inactive: 0.5. Turning to `CC1CCc2c(N3CCC(O)CC3)c(F)cc3c(=O)c(C(=O)O)cn1c23` (stereo not given), the maximal number is inactive: 1.

As for `COc1cc(OC)c2c(c1Cl)O[C@@]1(C(=O)CC(=O)C[C@H]1C)C2=O`, the maximal number is inactive: 1.

With `COc1ccc(C(C)=O)c(OC)c1`, the maximal number was inactive: 1. With `C/C=N/N(C)C=O`, the maximal number is inactive: 1. The same measure for `C=CC(C1=CC(=O)C(OC)=CC1=O)c1ccccc1` (stereo not given): inactive: 1; for `C=CC1=C(C)/C(=C/c2[nH]c(Cc3[nH]c(/C=C4\NC(=O)C(C)=C4C=C)c(C)c3CCC(=O)O)c(CCC(=O)O)c2C)NC1=O`: inactive: 1; for `CC(N/C(=N\C#N)Nc1ccncc1)C(C)(C)C` (stereo not given): inactive: 1. For `Oc1cc2c(cc1O)C1c3ccc(O)c(O)c3OCC1(O)C2` (stereo not given), the maximal number is inactive: 1.
